This is one part of the list. For some of these results: The source does not settle which construct or isoform was used.

The record followed here is article PMC5996148.

Among the test systems are TTC8 (human); TTR (human); TUBA3E (human); TXNDC9 (human); TXNL4B (human); Tachykinin-3 (human); Tesmin (human).
Holding throughout (experiment): protein microarray (ProtoArray v5.0), streptavidin-Alexa Fluor 647
Common to all, as to details: 3'-biotin; 20 mM Tris (pH 7.5), 5 mM MgCl2, 100 mM KCl, 0.1% Tween-20, A/T-rich and random oligonucleotide blockers; temperature not stated; high values mean tight binding

For a further test, the target named is T1, TTLL7 (UniProt Q6ZT98).
T1 sequence: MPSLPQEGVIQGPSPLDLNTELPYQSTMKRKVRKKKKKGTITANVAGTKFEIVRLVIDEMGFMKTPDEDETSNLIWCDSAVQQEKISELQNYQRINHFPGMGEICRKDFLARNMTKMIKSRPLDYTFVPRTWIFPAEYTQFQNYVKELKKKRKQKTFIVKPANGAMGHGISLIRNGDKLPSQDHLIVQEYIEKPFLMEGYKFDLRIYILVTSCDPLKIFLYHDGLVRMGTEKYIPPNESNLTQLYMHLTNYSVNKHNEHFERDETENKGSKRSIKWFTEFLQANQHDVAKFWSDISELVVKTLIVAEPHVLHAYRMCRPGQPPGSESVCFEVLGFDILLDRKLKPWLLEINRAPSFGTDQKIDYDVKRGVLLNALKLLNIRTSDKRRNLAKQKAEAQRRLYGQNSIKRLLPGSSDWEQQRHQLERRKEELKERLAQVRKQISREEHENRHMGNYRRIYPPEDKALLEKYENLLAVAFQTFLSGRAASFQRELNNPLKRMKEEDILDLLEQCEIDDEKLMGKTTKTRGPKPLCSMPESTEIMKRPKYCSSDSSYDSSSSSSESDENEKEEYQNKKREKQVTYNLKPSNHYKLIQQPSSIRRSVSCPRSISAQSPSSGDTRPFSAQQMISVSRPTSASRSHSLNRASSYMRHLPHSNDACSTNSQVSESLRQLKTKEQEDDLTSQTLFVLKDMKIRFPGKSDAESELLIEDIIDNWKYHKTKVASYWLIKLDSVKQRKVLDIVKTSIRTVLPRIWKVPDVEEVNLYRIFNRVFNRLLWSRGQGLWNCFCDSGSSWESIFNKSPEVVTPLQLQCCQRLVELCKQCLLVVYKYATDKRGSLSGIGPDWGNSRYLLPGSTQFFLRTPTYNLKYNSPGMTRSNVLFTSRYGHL

In test [1] the test system is Tetratricopeptide repeat protein 1 (human).
Test [2] concerns Thrombospondin type-1 domain-containing protein 4 (human).

In the case of “GGGGACAGGGGTATGGGGAGGGG [G4-3 biotinylated (CtG)]”, the binding signal in the test on TTC8 (human) is -0.333 z-score; with TTLL7 it was 5.28 z-score; in the test with TTR (human) it was -0.309 z-score; in the test on TUBA3E (human), -0.33 z-score; in the test with TXNDC9 (human), -0.337 z-score; in the test with TXNL4B (human) it was -0.296 z-score. Besides, the binding signal was -0.322 z-score in the test on Tachykinin-3 (human), -0.333 z-score with Tesmin (human), -0.331 z-score in test [1] and -0.317 z-score in test [2].
